Source: PubChem BioAssay AID1224828 (NIAID, 2016)
In all, the deposit lists about 17,000 reagents; this is a part drawn at random. In the full data, 762 (4.5%) are marked active. 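Active calls include both raised and lowered p65 entry, mostly lowered; wells with fewer than 50 cells lack a z-score.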 Raw values are not corrected between plates. Reagents against one gene are numbered here.

Purpose: 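Find genes required for NF-kappaB p65 moving into the nucleus after LPS in mouse macrophages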 (primary screen)
System: mouse RAW264.7 G9 macrophage reporter cells (GFP-p65, Tnf promoter-mCherry)
Reagents: siRNA pool against mouse genes, 100 nM
Time to read-out: 2 days siRNA transfection, then 40 min LPS before fixation
Challenge: LPS (Salmonella minnesota R595) at 10 ng/ml
Detection: 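Microscopy ratio of nuclear to perinuclear-ring GFP-p65 signal, scaled to the plate median; gene score is the average of two replicate robust z-scores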
Reading the numbers: p65 translocation robust z-score: higher = more nuclear NF-kappaB p65 after LPS than the plate median; nuclear/cytoplasmic p65 ratio: higher = more nuclear NF-kappaB p65
Active means: 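Called active when z exceeds 3.3 or falls under -1.56 (median of Tlr4 controls), giving activity score of at least 50; no calls for control wells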
Meaning of the calls: active = hit (p65 shift raised or lowered); inactive = no clear change

| gene knocked down | pool no. | p65 translocation robust z-score | nuclear/cytoplasmic p65 ratio, rep 1 | nuclear/cytoplasmic p65 ratio, rep 2 | low cell count flag | Outcome |
| --- | --- | --- | --- | --- | --- | --- |
| Mynn | 1 | 0.81 | 1.93 | 1.7 | enough cells to score | inactive |
| Ctsb | 1 | -0.63 | 1.47 | 1.23 | enough cells to score | inactive |
| Haus7 | 1 | 0.69 | 1.55 | 1.63 | enough cells to score | inactive |
| Nup98 | 1 | 2.78 | 2.38 | 2.02 | enough cells to score | inactive |
| Nfia | 1 | 0.04 | 1.47 | 1.41 | enough cells to score | inactive |
| Nfia | 2 | -1.08 | 1.25 | 1.43 | enough cells to score | inactive |
| Fgl2 | 1 | -0.15 | 1.5 | 1.5 | enough cells to score | inactive |
| Morc1 | 1 | 0.7 | 1.9 | 1.7 | enough cells to score | inactive |
| Flvcr2 | 1 | 0.72 | 1.68 | 1.97 | enough cells to score | inactive |
| Serpinb9d | 1 | – | 1.36 | 1.29 | fewer than 50 cells per well; well left out of scoring | inactive |
| Dner | 1 | 0.3 | 1.41 | 1.49 | enough cells to score | inactive |
| Sdhc | 1 | 0.03 | 1.38 | 1.73 | enough cells to score | inactive |
| Fsd1 | 1 | -2.38 | 1.31 | 1.23 | enough cells to score | active |
| Or8b12 | 1 | – | 1.48 | 1.34 | fewer than 50 cells per well; well left out of scoring | inactive |
| Ifne | 1 | -0.07 | 1.55 | 1.41 | enough cells to score | inactive |
| Mpc2 | 1 | -1.26 | 1.25 | 1.29 | enough cells to score | inactive |
| Gimap5 | 1 | 0.61 | 1.52 | 1.47 | enough cells to score | inactive |
| Csnk1e | 1 | -1.84 | 1.4 | 1.25 | enough cells to score | active |
| Pla2g2e | 1 | 0.94 | 1.59 | 1.56 | enough cells to score | inactive |
| Or2y6 | 1 | 1.43 | 1.66 | 1.58 | enough cells to score | inactive |
| Cpsf4 | 1 | 1.69 | 1.85 | 2.04 | enough cells to score | inactive |
| Moxd2 | 1 | 0.16 | 1.45 | 1.72 | enough cells to score | inactive |
| Chd6 | 1 | 1.23 | 1.55 | 1.59 | enough cells to score | inactive |
| Brf2 | 1 | -0.43 | 1.57 | 1.53 | enough cells to score | inactive |
| Dld | 1 | 0.64 | 1.58 | 1.45 | enough cells to score | inactive |
| Cpne9 | 1 | 0.57 | 1.48 | 1.58 | enough cells to score | inactive |
| 1810024B03Rik | 1 | – | 1.47 | 1.4 | fewer than 50 cells per well; well left out of scoring | inactive |
| Med9 | 1 | -0.12 | 1.61 | 1.82 | enough cells to score | inactive |
| Itln1 | 1 | – | 1.12 | 0.967 | fewer than 50 cells per well; well left out of scoring | inactive |
| Mgst2 | 1 | 0.37 | 1.71 | 1.66 | enough cells to score | inactive |
| Dnajc27 | 1 | -1.22 | 1.43 | 1.44 | enough cells to score | inactive |
| Slc41a2 | 1 | – | 1.11 | 1.46 | fewer than 50 cells per well; well left out of scoring | inactive |
| Cln6 | 1 | -0.64 | 1.4 | 1.27 | enough cells to score | inactive |
| Gnptg | 1 | 1.46 | 1.31 | 1.79 | enough cells to score | inactive |
| Prrc2b | 1 | 0.05 | 1.37 | 1.57 | enough cells to score | inactive |
| Apmap | 1 | 1.43 | 1.48 | 1.54 | enough cells to score | inactive |
| Cgrrf1 | 1 | -0.61 | 1.45 | 1.59 | enough cells to score | inactive |
| 9330155M09Rik | 1 | 1.15 | 1.54 | 1.75 | enough cells to score | inactive |
| Cysltr1 | 1 | 0.9 | 1.68 | 1.67 | enough cells to score | inactive |
| Vps52 | 1 | 0.53 | 1.6 | 1.56 | enough cells to score | inactive |
| Atp8a1 | 1 | 0.35 | 1.82 | 1.52 | enough cells to score | inactive |
| Psmb3 | 1 | – | 1.15 | 1.21 | fewer than 50 cells per well; well left out of scoring | inactive |
| Ermard | 1 | -1.4 | 1.5 | 1.16 | enough cells to score | inactive |
| Ermard | 2 | – | 1.73 | 1.9 | fewer than 50 cells per well; well left out of scoring | inactive |
| H2-T13 | 1 | 2.23 | 1.73 | 1.67 | enough cells to score | inactive |
| Ranbp9 | 1 | 1.23 | 1.64 | 1.74 | enough cells to score | inactive |
| Exosc9 | 1 | 0.25 | 1.64 | 1.49 | enough cells to score | inactive |
| Igsf6 | 1 | – | 1.55 | 1.39 | fewer than 50 cells per well; well left out of scoring | inactive |
| Arf1 | 1 | 0.78 | 1.85 | 1.62 | enough cells to score | inactive |
| Or5b116 | 1 | 1.62 | 1.91 | 1.58 | enough cells to score | inactive |
| Aloxe3 | 1 | 1.11 | 1.8 | 1.77 | enough cells to score | inactive |
| Ufsp2 | 1 | 1.05 | 1.43 | 1.5 | enough cells to score | inactive |
| Nefl | 1 | -1.39 | 1.24 | 1.18 | enough cells to score | inactive |
| Slc22a29 | 1 | -0.34 | 1.5 | 1.52 | enough cells to score | inactive |
| Tmcc3 | 1 | 0.78 | 1.64 | 1.99 | enough cells to score | inactive |
| Krtap12-1 | 1 | -2.36 | 1.17 | 1.16 | enough cells to score | active |
| Tcstv3 | 1 | – | 1.26 | 1.15 | fewer than 50 cells per well; well left out of scoring | inactive |
| Rwdd3 | 1 | 2.4 | 1.72 | 1.78 | enough cells to score | inactive |
| Rwdd3 | 2 | – | 1.02 | 1.01 | fewer than 50 cells per well; well left out of scoring | inactive |

4 entries from above, showing only “nuclear/cytoplasmic p65 ratio, rep 2”:
Nfia #2 = 1.43
Fgl2 = 1.5
Morc1 = 1.7
Flvcr2 = 1.97
